Consider 1 molecule from patent US7273882B2, “Aminoacetamide acyl guanidines as β-secretase inhibitors” (priority 2006, dated 2007).

Protein sequences, listed by entry. Tags and fused reporters are not part of them. Residues count along the entry.
UniProt P56817, 46-501 limits assumed: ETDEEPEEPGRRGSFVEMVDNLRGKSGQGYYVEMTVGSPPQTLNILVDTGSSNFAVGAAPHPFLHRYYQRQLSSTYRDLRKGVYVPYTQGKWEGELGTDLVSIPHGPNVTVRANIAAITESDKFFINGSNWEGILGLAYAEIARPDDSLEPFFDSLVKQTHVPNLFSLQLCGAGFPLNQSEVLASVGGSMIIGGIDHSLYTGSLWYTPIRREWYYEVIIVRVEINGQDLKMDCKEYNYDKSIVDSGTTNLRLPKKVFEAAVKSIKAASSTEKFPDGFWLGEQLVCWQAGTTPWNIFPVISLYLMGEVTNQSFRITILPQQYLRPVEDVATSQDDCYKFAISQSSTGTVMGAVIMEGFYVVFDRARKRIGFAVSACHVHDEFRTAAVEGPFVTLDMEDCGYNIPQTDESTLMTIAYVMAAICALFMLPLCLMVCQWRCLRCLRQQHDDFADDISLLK

The structures appear in SMILES notation. The structures given here were assigned with low confidence; some may be wrong.

This experiment addresses BACE1 enzyme (Homo sapiens, UniProt P56817). The experiment in a line: Radioligand displacement (binding) assay with radiolabeled BACE inhibitor on HEK293-9B.A1 cell homogenate. Particulars: read-out: Activity Rating (activity based on IC50 values), HEK293-9B.A1 cell homogenate overexpressing BACE1. An excerpt:
There are a number of methods by which inhibitors of the BACE enzyme can be identified experimentally. The enzyme can be obtained from membrane samples from natural tissues or cultured cells or can be expressed recombinantly in a host cell by well known methods of molecular biology. The whole enzyme or a portion thereof can be expressed, for example, in bacterial, insect or mammalian cells to obtain a catalytically active enzyme species. The enzymatic activity and/or ligand binding capability of the enzyme can be assessed within these membrane samples, or the enzyme can be purified to varying extents. As an illustrative example, the nucleic acid sequence encoding the pro and catalytic domains of human BACE can be appended on the 5′ end with an untranslated and signal sequence from the gene for acetylcholinesterase, and on the 3′ end with a sequence encoding a poly-histidine tag. This cDNA can then be expressed in Drosophila melanogaster S2 cells in which the signal and pro sequences of the transcribed/translated protein are removed by cellular proteases and the catalytic domain, appended by a C-terminal poly-histidine tag, is secreted out into the cellular medium. […]

For the molecule `COc1ccc(-c2noc(C)c2C(=O)N=C(N)NCc2cc(Cl)c(NC(=O)CN3CCCCCC3c3ccccn3)c(Cl)c2)cc1` (stereo not shown), the IC50 is under 0.1 µM.
